# Measurements as given in PubChem BioAssay AID504834 (National Center for Advancing Translational Sciences (NCATS), 2011).
# Among all 320,000 compounds or so, about 22,000 (6.9%) were called active. Inconclusive means that the source gave no clear call. Such entries were picked first, then a sample of the others. Calls follow the shape of the dose curve; as a rule, active = well fitted inhibition curve with a large enough effect; inconclusive = small, poorly fitted or top-dose-only effect, or another doubt; inactive = no such curve, though single readings can be large or run the other way. A potency beside an inconclusive call is a rough fit, not a confirmed value.
# Test: Primary qHTS for delayed death inhibitors of the malarial parasite plastid, 96 hour incubation
# Settings: P. falciparum luciferase reporter growth; series mostly up to 28.7 µM
# Procedure, shortened: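 Parasite growth measured via integrated firefly luciferase reporter in P. falciparum. Infected erythrocytes at 2% hematocrit, 0.05% parasitemia final were treated 96 hours at 37 C under 5% CO2, and luminescence was read.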
# Potency is read from the fitted curve at half-maximal effect.
row,SMILES,Potency
1,COc1ccccc1NC(=O)c1cccc2c(Br)cccc12,inactive
2,O=C(Nc1ccccc1)Nc1ccc(-n2ccc(C(F)(F)F)n2)cc1,active: 3.29 µM
3,COCCCN=C1NN=C(c2cc(C)n(Cc3ccccc3Cl)c2C)CS1,"inconclusive: 13.1 µM [inhibitor, single point]"
4,CC1(CC(=O)N/N=C/c2cc(Br)c(O)cc2O)OCCO1,"inconclusive: 0.0586 µM [inhibitor, full curve, poor fit]"
5,COc1ccc(NC(=O)c2ccccc2-c2ccccc2)cc1,inactive
6,CC(C)Oc1ccc(S(=O)(=O)N2CCOCC2)cc1NC(=O)Cc1c(F)cccc1Cl,"inconclusive: 2.94 µM [inhibitor, full curve]"
7,CCOC(=O)c1c(-n2c(C)cc(C=C3C(=O)NC(=O)NC3=O)c2C)sc2c1CCCC2,"inconclusive: 0.147 µM [inhibitor, full curve, poor fit]"
8,Cc1cc(O)ccc1N=Cc1c(C(F)(F)F)[nH][nH]c1=O,"inconclusive: 18.5 µM [inhibitor, single point]"
9,Nc1ccc2c3c(cccc13)CC2,"inconclusive: 11.7 µM [inhibitor, partial curve, poor fit]"
10,CCn1ncc(/C=N\NC(=O)c2ccc3c(c2)c(C)c(C)n3Cc2ccccc2)c1C,"inconclusive: 18.5 µM [inhibitor, single point]"
11,COc1cccc(CNCCc2c[nH]c3ccccc23)c1OC,inactive
12,CCc1cc(C(=O)OC)c(NC(=O)c2ccoc2C)s1,"inconclusive: 10.4 µM [inhibitor, single point]"
13,C(=N\N=C\c1ccccn1)/c1ccccn1,"inconclusive: 8.28 µM [inhibitor, partial curve]"
14,Cc1ccc(/C=N/NC(=O)CSc2nnc(-c3ccc(Cl)cc3)n2-c2ccc(Cl)cc2)o1,"inconclusive: 8.28 µM [inhibitor, single point]"
15,COCCCn1c(SCC(=O)NC2CCCC2)nnc1-c1ccco1,inactive
16,Cc1cccc(/C(N)=N/OC(=O)COc2ccccc2Cl)c1,"inconclusive: 18.5 µM [inhibitor, single point]"
17,Cc1c(CN2CCC(CO)(CCOc3ccccc3)CC2)c(=O)n(-c2ccccc2)n1C,"inconclusive: 14.7 µM [inhibitor, single point]"
18,Cc1cc(-c2nnc(SCC(=O)Nc3ccc(Cl)cn3)n2N)n[nH]1,"inconclusive: 10.4 µM [inhibitor, partial curve, poor fit]"
19,COc1ccccc1NC(=O)/C=C\c1ccco1,inactive
20,NC(=S)N/N=C/c1ccc(-c2cc(Cl)ccc2Cl)o1,active: 4.65 µM
21,CC(C)n1cc([C@@H]2C[C@H]3CN(Cc4cccc(Cl)c4)C(=O)[C@]34CCCN24)cn1,"inconclusive: 18.5 µM [inhibitor, partial curve, poor fit]"
22,COc1cccc(CC2(CO)CCCN(Cc3cn[nH]c3-c3ccccc3)C2)c1 (stereo not drawn),"inconclusive: 11.7 µM [inhibitor, partial curve, poor fit]"
23,CC1(C)Cc2cccc(OCC(N)=O)c2O1,"inconclusive: 1.04 µM [inhibitor, partial curve, poor fit]"
24,CCOC(=O)c1[nH]ncc1CN1CCN(Cc2ccc(C)cc2)C(CCO)C1 (stereo not drawn),"inconclusive: 3.7 µM [inhibitor, single point]"
25,Cc1nc(CCNC(=O)CC2C(=O)NCCN2Cc2ccc(F)cc2)sc1C (stereo not drawn),"inconclusive: 18.5 µM [inhibitor, single point]"

row,SMILES,Potency
1,CC(OC(=O)CCCN=C1NS(=O)(=O)c2ccccc21)C(=O)Nc1ccccc1[N+](=O)[O-] (stereo not drawn),inactive
2,O=C(Nc1nc2ccccc2s1)c1cccc(S(=O)(=O)N2CCc3ccccc32)c1,"inconclusive: 18.5 µM [inhibitor, single point]"
3,Cc1ccc2nc3c(cc(C(N)=S)c(=N)n3CCCOC(C)C)c(=O)n2c1,active: 1.47 µM
4,CCC(=O)c1cn(CC(=O)NCc2ccco2)c2ccccc12,inactive
5,CCCCN(CC)CCCNC(=O)c1cc2c(-c3ccc(OC)c(OC)c3)nn(C)c2s1,"inconclusive: 18.5 µM [inhibitor, single point]"
6,CCOC(=O)C1=NOC2C3CC(C12)C1C(=O)N(CCc2ccc(OC)c(OC)c2)C(=O)C31 (stereo not drawn),inactive
7,Fc1ccccc1NC(=S)NCCc1cccc(Cl)c1,"inconclusive: 2.33 µM [inhibitor, partial curve, poor fit]"
8,Cc1oc(-c2ccccc2)cc1C(=O)Nc1cccc(C(=O)O)c1,"inconclusive: 0.329 µM [inhibitor, partial curve, poor fit]"
9,Cc1cccc2cc(/C=C/C(=O)c3ccco3)c(Cl)nc12,inactive
10,CCNC(=S)N/N=C(\C)c1ccc(Cl)s1,"inconclusive: 10.4 µM [inhibitor, single point]"
11,COc1ccccc1S(=O)(=O)Cc1ccc(C(=O)N2CCCC2)o1,"inconclusive: 0.0928 µM [inhibitor, full curve]"
12,COc1ccc(NC(=O)CCNS(=O)(=O)c2ccc(Cl)c([N+](=O)[O-])c2)cc1S(N)(=O)=O,"inconclusive: 5.22 µM [inhibitor, partial curve, poor fit]"
13,O=C(O)CC(Cc1ccc(Br)cc1)C(=O)O (stereo not drawn),"inconclusive: 10.4 µM [inhibitor, single point]"
14,Cc1cccn2c(=O)c3cc(C#N)c(=O)n(CCCN4CCOCC4)c3nc12,active: 2.62 µM
15,Clc1ccc(CSc2nnc(-c3cccnc3)o2)cc1,inactive
16,COc1ccc(OC)c(Nc2ncnc3ccc(Br)cc23)c1,"inconclusive: 18.5 µM [inhibitor, single point]"
17,O=C(NC1CCCCCC1)c1ccc(CS(=O)Cc2ccccc2Cl)o1 (stereo not drawn),inactive
18,Cc1ccn2c(CNCCn3nc(C)cc3C)c(C(=O)N3CCCCCC3)nc2c1,"inconclusive: 18.5 µM [inhibitor, single point]"
19,C/C(=N\NC(=O)NC1CCCCC1)c1ccc(OC(F)F)cc1OC(F)F,"inconclusive: 11.7 µM [inhibitor, single point]"
20,COc1ccc(OCCOC(=O)CCS(=O)(=O)c2ccc(C)cc2)cc1,inactive
21,C=CCn1c(SCC(=O)N(CCOC)c2c(N)n(CCCC)c(=O)[nH]c2=O)nnc1-c1ccc(Cl)cc1,inactive
22,O=c1cc(Cn2ccnc2)c2cc3c(cc2o1)CCC3,"inconclusive: 4.15 µM [inhibitor, partial curve, poor fit]"
23,Cc1c(Cl)cn2c(=O)cc(CN(C)Cc3nc4ccccc4c(=O)[nH]3)nc2c1Cl,inactive
24,NN1C(=O)/C(=C\c2ccco2)SC1=S,inactive
25,CC(=O)NCCc1c[nH]c2ccccc12,inactive

# A few values from the results shown:
# Potency with `Fc1ccccc1NC(=S)NCCc1cccc(Cl)c1` reads inconclusive: 2.33 µM [inhibitor, partial curve, poor fit]
# Potency with `CCC(=O)c1cn(CC(=O)NCc2ccco2)c2ccccc12` reads inactive
# Potency with `Clc1ccc(CSc2nnc(-c3cccnc3)o2)cc1` reads inactive

# The list continues.

row,SMILES,Potency
1,Clc1cccc(-c2ccc(C=Nc3ccc(N4CCOCC4)cc3)o2)c1,active: 10.4 µM
2,O=S(=O)(NC1CCCCC1N1CCN(c2ccccc2F)CC1)c1ccccc1 (stereo not drawn),"inconclusive: 16.5 µM [inhibitor, single point]"
3,CCc1c(C)sc(NC(=O)C2CCCO2)c1C#N (stereo not drawn),inactive
4,COc1ccc(C(=O)NNC(=O)c2ccc(S(=O)(=O)N3CCCCC3)cc2)cc1,inactive
5,COC(=O)CC1C(=O)NCCN1C(=O)CSc1nc2ccccc2c(=O)n1CC(C)C (stereo not drawn),"inconclusive: 4.15 µM [inhibitor, partial curve]"
6,COC(=O)C1=C(N)Oc2c(c(=O)oc3ccccc23)[C@]12C(=O)N(C)c1ccccc12,inactive
7,O=C(NCCCN1CCCCCC1)c1ccc(N2CCCC2=O)cc1,active: 2.33 µM
8,Brc1ccccc1CNCCc1ccc2c(c1)OCO2,active: 11.7 µM
9,Cc1nc(C(C)NC(=O)c2cc(COc3ccc(C)c(C)c3)on2)c(C)s1 (stereo not drawn),"inconclusive: 18.5 µM [inhibitor, single point]"
10,CC(Oc1cccc(Cl)c1)C(=O)Nc1cc(S(=O)(=O)N2CCOCC2)ccc1N1CCCC1 (stereo not drawn),inactive
11,COC(=O)C1=C(C)NC(=S)N(C(C)=O)C1c1ccc(OC)c(OC)c1 (stereo not drawn),"inconclusive: 5.86 µM [inhibitor, partial curve, poor fit]"
12,O=C(Nc1ccc2c(c1)C(=O)OC2)c1ccc(Cl)cc1,inactive
13,COc1cc(SC)ccc1C(=O)Nc1ccc(Cl)cn1,"inconclusive: 11.7 µM [inhibitor, single point]"
14,O=C1CC(NS(=O)(=O)c2cc(F)ccc2F)CN1c1cccc(F)c1 (stereo not drawn),inactive
15,S=C(c1ccccc1)N1CCSCC1,inactive
16,Cc1ccc(NC(=O)c2ccc3c(c2)OCO3)cc1S(=O)(=O)N1CCOCC1,"inconclusive: 10.4 µM [inhibitor, single point]"
17,O=C(Nc1ccccc1)Nc1sccc1-c1nc2ccccc2s1,"inconclusive: 18.5 µM [inhibitor, single point]"
18,CC(=O)c1ccc(C(=O)N2CCCC(C(=O)c3cc(F)ccc3F)C2)s1 (stereo not drawn),inactive
19,Cc1ccc(C(c2sc3ncnn3c2O)N2CCCCC2)cc1 (stereo not drawn),"inconclusive: 5.86 µM [inhibitor, partial curve, poor fit]"
20,CC(SC1CCCC1)C(=O)NC(C)(C#N)C(C)C (stereo not drawn),"inconclusive: 9.28 µM [inhibitor, single point]"
21,Cc1[nH]n(-c2ccccc2)c(=O)c1/C=N/NC(=O)C(C)C,"inconclusive: 18.5 µM [inhibitor, single point]"
22,Cc1cc(C)c2c(CN3CCN(Cc4ccc5c(c4)OCO5)CC3)cc(=O)oc2c1C,"inconclusive: 18.5 µM [inhibitor, single point]"
23,O=[N+]([O-])c1cc(S(=O)(=O)Nc2ccc(Cl)cc2)ccc1N/N=C/c1ccncc1,"inconclusive: 1.04 µM [inhibitor, full curve, poor fit]"
